Experimental data taken from paper PMC10756122.
Results are given in words; binding and its absence hold for the method and conditions named. Binding seen in cells or lysates may run through a third protein. These calls come from enrichment with a bait or labelling near it, and not all partners need be listed.

Amino acid sequences for entries named in this document (tags omitted). A change or cut given only in a name is not applied to a line headed by its entry. Residues count along the entry.
UniProt O60911: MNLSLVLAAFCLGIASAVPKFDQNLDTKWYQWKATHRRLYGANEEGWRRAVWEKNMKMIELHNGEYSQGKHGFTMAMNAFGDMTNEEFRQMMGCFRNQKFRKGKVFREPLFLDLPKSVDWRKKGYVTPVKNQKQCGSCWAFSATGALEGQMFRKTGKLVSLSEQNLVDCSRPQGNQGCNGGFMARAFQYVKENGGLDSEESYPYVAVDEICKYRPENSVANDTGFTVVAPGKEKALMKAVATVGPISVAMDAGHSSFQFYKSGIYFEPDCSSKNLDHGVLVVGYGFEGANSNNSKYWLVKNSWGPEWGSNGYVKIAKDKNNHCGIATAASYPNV
UniProt P02751, residues 32-2477: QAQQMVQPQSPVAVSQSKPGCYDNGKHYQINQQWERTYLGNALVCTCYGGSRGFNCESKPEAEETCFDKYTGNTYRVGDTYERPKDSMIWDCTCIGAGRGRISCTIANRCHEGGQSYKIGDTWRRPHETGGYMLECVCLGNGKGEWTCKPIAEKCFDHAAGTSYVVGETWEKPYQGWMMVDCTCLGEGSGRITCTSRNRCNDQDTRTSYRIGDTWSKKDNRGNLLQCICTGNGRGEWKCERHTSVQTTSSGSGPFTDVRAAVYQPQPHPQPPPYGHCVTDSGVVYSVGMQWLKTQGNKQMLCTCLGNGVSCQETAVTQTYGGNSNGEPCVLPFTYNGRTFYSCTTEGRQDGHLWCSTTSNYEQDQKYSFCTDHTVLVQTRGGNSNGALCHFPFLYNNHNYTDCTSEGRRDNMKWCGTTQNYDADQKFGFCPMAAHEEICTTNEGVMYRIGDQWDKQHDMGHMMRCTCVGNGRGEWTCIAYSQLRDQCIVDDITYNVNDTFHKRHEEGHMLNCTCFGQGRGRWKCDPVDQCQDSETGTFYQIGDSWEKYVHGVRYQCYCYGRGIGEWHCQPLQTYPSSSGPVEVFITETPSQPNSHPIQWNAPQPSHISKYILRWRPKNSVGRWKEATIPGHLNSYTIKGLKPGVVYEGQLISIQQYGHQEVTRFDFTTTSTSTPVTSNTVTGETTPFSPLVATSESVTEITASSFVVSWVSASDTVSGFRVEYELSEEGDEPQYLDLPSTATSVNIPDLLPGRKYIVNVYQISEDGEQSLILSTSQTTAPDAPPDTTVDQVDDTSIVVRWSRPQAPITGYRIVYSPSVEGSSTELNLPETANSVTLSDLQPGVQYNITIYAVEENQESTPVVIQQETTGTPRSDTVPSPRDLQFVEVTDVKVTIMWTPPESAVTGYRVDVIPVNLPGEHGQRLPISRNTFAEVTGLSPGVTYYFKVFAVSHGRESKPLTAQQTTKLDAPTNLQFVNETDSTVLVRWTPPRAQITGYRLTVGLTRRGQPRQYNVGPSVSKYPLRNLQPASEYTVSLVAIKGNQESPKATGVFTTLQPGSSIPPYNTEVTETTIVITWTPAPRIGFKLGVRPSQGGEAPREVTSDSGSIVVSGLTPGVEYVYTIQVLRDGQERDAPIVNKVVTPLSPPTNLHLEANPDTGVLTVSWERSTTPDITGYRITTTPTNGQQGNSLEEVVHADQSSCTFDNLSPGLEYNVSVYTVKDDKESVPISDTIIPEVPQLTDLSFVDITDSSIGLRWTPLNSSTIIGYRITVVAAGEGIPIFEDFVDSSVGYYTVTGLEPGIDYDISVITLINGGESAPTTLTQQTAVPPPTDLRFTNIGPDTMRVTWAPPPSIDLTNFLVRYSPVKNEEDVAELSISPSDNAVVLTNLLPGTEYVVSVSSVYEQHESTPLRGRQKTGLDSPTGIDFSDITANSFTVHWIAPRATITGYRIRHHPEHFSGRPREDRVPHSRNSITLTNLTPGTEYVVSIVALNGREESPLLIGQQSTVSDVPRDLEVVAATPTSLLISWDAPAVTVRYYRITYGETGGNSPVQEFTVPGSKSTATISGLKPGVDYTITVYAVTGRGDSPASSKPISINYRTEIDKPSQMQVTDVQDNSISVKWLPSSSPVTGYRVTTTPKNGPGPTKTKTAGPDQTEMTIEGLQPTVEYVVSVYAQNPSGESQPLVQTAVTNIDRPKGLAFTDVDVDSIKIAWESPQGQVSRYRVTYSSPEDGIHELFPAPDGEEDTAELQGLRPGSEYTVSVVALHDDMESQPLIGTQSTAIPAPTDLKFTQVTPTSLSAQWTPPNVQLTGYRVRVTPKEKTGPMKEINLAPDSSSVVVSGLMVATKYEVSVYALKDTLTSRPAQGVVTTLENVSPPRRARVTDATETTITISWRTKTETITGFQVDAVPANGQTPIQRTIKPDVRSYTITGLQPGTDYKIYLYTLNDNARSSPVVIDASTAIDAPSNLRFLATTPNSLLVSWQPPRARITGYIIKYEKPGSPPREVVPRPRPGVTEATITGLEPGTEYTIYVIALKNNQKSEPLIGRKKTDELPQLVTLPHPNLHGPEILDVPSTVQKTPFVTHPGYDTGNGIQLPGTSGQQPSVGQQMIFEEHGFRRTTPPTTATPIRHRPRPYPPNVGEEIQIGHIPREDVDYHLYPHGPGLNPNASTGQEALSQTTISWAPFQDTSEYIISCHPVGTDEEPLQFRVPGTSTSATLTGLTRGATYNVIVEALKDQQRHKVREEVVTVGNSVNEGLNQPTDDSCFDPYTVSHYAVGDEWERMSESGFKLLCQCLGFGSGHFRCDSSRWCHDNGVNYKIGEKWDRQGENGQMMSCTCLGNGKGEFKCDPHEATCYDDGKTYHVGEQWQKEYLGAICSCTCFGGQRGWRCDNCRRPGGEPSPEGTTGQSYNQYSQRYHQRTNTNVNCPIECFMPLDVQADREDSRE
UniProt P12830: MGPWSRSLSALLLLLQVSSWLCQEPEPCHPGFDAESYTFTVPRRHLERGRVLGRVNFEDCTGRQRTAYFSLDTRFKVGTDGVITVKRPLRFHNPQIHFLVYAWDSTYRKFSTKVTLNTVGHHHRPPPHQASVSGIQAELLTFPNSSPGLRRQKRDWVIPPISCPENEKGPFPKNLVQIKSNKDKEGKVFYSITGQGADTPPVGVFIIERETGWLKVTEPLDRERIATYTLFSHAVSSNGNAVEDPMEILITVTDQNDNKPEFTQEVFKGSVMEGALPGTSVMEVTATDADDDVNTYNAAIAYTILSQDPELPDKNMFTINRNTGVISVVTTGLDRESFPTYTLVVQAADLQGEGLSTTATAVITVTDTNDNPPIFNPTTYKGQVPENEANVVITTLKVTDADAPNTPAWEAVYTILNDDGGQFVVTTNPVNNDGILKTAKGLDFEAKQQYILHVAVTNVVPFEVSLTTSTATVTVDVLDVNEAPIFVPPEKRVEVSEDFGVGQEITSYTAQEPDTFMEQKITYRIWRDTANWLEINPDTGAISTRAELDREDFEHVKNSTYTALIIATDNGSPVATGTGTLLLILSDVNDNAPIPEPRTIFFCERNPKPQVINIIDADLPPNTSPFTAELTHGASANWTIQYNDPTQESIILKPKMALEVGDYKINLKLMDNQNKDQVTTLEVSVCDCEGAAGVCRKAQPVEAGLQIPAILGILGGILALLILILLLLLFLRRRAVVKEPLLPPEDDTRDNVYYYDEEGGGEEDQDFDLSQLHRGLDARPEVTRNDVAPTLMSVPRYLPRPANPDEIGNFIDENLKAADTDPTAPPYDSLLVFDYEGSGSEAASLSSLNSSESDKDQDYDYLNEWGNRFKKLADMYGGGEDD

Molecular target: Flag-tagged CTSV (Cathepsin V) (human) (UniProt O60911)
Test: affinity purification with mass spectrometry; lysates of A549 and NCI-H1975 cells transfected with Flag-tagged CTSV; Flag-conjugated beads, 4°C, 8 h; beads washed 5 times; SDS-PAGE and mass spectrometry

Substance | binding
fibronectin, endogenous (from UniProt P02751 32-2477) | binds
E-cadherin, endogenous (from UniProt P12830) | binds
